Experimental data published in publication PMC11362013, “Mechanism for controlled assembly of transcriptional condensates by Aire” (Nature Immunology, 2024).
Results are given in words; binding and its absence hold for the method and conditions named. In cells and extracts the contact can be indirect. Here binding means that the protein was enriched with, or labelled near, the bait; the list need not be complete. Sequences can lack the tags named with a protein.

Sequences of proteins named here, by UniProt entry; tags and fusion partners are left off.
UniProt Q92793: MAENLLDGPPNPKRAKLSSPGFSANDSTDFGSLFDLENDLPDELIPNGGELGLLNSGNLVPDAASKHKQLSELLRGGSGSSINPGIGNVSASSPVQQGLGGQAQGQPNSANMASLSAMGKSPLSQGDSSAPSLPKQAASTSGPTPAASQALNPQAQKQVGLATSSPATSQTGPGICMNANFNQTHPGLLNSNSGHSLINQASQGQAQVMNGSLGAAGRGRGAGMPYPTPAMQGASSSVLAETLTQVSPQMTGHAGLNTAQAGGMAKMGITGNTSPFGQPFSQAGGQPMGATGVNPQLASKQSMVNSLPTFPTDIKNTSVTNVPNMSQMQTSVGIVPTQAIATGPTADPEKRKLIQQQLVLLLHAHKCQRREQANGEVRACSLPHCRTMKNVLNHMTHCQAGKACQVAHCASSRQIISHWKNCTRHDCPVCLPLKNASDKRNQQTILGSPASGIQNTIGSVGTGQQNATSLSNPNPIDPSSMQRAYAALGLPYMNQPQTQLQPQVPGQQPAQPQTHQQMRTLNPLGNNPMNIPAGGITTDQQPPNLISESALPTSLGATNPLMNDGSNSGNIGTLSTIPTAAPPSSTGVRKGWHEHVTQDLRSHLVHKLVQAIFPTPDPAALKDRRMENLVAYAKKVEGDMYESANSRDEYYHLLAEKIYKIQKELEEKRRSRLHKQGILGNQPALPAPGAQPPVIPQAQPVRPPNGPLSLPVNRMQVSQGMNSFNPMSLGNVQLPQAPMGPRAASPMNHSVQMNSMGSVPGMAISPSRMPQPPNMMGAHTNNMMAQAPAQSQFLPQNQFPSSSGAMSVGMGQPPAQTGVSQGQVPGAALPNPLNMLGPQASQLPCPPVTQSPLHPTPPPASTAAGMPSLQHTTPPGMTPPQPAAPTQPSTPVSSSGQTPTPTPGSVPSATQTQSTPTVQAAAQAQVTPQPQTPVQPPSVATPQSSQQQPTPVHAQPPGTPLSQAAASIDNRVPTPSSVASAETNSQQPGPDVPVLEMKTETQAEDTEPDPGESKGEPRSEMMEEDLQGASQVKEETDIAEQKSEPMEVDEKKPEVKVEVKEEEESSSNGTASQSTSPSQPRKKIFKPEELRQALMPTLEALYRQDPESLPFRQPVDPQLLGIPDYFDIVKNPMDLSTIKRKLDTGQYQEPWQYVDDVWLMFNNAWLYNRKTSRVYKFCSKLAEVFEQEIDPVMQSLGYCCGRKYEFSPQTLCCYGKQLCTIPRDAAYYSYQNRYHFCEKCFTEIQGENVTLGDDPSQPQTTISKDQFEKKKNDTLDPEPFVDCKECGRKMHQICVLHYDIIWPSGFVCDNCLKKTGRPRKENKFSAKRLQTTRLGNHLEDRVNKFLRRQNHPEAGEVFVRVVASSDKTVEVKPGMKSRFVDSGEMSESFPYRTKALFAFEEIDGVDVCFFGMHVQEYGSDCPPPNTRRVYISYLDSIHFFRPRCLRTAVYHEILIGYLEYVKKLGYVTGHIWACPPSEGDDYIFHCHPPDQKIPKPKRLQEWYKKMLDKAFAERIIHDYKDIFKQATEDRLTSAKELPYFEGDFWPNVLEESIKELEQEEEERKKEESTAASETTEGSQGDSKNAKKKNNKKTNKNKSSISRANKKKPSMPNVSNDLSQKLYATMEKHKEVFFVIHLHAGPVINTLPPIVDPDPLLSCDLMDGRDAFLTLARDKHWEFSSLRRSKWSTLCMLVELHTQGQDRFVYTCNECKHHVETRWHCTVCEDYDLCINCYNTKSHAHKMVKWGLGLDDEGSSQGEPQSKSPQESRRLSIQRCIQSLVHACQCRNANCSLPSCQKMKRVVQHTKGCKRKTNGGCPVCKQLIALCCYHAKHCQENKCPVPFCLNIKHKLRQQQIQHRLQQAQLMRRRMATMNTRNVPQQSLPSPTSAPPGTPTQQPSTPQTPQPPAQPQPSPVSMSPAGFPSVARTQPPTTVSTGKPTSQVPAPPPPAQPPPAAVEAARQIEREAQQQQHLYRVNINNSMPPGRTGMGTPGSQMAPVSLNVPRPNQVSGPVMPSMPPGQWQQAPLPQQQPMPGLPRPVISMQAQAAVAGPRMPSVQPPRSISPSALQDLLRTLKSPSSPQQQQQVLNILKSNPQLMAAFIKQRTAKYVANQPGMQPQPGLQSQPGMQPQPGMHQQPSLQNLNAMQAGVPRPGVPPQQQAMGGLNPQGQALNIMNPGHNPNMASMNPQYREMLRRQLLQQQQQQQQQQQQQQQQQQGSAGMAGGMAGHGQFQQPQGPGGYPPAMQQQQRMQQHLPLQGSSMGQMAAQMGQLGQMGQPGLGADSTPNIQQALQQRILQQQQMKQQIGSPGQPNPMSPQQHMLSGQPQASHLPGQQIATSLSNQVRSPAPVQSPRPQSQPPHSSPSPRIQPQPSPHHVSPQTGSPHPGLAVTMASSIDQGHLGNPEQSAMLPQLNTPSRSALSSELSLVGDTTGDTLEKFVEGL
UniProt Q09472: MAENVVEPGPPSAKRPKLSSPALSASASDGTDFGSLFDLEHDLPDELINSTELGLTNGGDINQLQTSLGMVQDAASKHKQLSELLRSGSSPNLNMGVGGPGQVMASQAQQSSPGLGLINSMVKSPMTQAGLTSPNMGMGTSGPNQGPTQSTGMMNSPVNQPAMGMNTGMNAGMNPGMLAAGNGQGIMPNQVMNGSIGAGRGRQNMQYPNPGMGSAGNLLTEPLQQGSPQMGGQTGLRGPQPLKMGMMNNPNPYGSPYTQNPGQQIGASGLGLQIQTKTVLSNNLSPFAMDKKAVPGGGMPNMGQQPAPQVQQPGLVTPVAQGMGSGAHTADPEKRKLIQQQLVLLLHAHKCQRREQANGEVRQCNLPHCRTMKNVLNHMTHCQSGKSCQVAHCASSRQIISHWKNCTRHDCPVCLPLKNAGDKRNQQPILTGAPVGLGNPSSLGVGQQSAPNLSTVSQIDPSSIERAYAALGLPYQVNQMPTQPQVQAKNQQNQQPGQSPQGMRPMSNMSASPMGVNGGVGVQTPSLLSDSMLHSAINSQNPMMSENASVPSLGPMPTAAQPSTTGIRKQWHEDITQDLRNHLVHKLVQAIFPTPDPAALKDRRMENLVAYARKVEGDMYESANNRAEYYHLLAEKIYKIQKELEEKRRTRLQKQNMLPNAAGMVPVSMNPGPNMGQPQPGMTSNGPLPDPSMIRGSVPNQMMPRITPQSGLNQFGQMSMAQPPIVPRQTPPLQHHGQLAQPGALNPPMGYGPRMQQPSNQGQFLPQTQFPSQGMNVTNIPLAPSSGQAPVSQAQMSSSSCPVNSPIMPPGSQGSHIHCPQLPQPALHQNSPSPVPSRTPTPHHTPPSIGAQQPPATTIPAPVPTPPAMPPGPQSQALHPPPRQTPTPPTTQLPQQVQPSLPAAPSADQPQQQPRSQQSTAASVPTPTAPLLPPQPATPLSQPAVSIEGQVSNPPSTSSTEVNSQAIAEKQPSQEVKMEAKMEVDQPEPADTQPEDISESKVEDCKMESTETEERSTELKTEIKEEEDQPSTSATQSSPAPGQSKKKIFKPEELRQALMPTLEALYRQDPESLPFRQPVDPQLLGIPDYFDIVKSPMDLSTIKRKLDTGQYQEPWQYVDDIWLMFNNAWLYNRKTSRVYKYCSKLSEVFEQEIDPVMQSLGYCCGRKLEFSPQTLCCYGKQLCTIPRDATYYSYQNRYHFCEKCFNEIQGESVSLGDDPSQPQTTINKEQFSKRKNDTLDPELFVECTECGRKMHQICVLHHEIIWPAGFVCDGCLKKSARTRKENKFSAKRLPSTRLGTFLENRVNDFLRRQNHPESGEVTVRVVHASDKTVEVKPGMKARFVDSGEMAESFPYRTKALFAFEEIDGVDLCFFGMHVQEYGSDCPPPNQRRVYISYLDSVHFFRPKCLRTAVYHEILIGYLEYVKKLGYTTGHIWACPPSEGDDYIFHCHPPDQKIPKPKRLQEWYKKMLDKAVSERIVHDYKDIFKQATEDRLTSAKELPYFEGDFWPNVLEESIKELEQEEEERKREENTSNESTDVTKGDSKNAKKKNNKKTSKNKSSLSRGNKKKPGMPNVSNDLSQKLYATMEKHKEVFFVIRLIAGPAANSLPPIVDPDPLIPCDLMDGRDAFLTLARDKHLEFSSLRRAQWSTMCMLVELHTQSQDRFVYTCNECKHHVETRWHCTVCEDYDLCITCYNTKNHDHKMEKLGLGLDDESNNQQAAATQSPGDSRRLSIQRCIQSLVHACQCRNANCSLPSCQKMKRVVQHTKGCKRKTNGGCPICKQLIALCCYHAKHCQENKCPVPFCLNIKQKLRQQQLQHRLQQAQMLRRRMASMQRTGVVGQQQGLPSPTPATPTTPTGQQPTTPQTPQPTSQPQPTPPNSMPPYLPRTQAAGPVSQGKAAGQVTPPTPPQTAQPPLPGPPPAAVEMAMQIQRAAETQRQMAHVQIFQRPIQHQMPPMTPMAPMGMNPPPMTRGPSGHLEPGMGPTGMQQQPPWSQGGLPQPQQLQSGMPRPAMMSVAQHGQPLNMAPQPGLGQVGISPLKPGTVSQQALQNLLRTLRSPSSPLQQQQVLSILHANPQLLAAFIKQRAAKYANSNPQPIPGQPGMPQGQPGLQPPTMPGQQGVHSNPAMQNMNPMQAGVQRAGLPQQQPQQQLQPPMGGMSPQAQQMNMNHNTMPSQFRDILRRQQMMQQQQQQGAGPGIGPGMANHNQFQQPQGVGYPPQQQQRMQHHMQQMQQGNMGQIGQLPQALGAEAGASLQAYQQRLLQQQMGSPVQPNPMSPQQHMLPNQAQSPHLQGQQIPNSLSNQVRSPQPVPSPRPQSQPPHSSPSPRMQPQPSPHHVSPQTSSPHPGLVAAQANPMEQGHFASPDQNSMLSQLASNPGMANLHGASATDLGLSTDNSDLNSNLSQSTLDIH

Target: T1, His6-GST-mouse Aire CTT (mouse) (UniProt Q9Z0E3)
T1 sequence: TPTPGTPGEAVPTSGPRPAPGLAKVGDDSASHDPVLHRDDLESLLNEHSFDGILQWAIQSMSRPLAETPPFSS
Assay: affinity purification with mass spectrometry; His6-GST-mouse Aire CTT on glutathione Sepharose beads, 293T nuclear extract, 16 h at 4 °C; ~250 kDa SDS-PAGE band cut and analysed by LC-MS/MS; His6-GST as negative control; only the target purified

Row | binding | Substance
1 | binds | CBP (from UniProt Q92793 1-2442)
2 | binds | p300 (from UniProt Q09472 1-2414)
